Assay results taken from article PMC12805590.
Results are given in words; binding and its absence hold for the method and conditions named. Binding seen in cells or lysates may run through a third protein. Some binding calls cover weakened binding; strength is not graded here.

The chains behind the UniProt entries cited, without tags or fusion partners.
UniProt Q00987: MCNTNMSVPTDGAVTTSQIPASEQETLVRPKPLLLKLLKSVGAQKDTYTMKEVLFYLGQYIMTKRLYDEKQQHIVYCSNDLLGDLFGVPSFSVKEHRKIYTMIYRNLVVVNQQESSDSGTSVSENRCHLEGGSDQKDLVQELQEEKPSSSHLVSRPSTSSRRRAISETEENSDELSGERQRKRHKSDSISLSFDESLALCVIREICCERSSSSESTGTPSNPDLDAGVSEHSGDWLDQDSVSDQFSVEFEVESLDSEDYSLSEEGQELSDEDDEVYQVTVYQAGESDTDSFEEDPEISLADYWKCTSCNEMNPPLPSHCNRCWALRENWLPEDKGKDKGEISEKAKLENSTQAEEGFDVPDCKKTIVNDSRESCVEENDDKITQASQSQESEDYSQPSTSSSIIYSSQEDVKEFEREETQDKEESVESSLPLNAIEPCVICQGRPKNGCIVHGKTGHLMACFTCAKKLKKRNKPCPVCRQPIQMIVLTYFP

Target: T1, Livin (BIRC7) (human (endogenous in MDA-MB-231 and MCF-7)) (UniProt Q96CA5)
T1 sequence: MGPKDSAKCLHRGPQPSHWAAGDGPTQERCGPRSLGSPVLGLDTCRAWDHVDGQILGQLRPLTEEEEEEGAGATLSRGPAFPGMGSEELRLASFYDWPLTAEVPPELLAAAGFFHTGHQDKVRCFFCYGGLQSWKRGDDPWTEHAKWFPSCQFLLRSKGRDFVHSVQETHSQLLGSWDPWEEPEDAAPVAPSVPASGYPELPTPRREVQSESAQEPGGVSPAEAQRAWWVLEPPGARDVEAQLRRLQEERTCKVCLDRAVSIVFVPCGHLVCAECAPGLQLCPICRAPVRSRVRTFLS
Assay: co-IP; endogenous proteins, MCF-7 and MDA-MB-231 lysates

mouse double minute 2 homolog (MDM2) (from UniProt Q00987 1-491)
binding: binds
